Experimental data: publication PMC4354016, “Centromeric binding and activity of Protein Phosphatase 4” (Nature Communications, 2015)
Read-outs that look alike come from different tables or passages of the source. These are yes or no findings as the source states them, for the method shown. In cells and extracts the contact can be indirect. Here binding means that the protein was enriched with, or labelled near, the bait; the list need not be complete. For part of these data: A no says only that the protein was not detected with the bait. For part of these data: Tags and fused reporters may be left off the sequences shown.

Protein sequences, listed by entry. Tags and fused reporters are not part of them. Lines headed by an entry give the natural chain unless they say otherwise; changes in a name come on top.
UniProt Q9VFS5: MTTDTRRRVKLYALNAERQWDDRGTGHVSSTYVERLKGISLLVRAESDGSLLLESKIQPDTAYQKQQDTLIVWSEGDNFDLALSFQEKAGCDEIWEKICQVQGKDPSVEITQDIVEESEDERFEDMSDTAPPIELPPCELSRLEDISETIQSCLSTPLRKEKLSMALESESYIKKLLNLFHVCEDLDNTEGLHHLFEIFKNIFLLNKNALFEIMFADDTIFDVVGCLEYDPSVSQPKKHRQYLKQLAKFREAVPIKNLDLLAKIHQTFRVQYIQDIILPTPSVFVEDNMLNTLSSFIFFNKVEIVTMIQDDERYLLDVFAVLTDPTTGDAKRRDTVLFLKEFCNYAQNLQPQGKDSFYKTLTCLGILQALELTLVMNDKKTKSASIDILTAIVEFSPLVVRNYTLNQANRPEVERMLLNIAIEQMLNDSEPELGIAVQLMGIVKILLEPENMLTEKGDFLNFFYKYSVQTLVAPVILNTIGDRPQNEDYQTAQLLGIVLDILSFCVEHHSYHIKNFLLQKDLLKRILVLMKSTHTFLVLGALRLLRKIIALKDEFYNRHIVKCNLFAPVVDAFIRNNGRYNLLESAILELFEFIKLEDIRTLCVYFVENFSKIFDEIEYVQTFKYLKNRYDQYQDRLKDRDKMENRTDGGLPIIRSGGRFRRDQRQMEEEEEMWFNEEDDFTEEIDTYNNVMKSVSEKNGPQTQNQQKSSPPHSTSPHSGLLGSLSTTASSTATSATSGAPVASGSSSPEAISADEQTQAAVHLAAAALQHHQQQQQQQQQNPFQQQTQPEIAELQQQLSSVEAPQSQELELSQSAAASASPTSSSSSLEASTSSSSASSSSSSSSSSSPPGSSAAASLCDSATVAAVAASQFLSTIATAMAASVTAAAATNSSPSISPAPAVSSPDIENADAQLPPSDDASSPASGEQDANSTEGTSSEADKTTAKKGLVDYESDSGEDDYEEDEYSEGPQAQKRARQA
UniProt Q9V6Q2: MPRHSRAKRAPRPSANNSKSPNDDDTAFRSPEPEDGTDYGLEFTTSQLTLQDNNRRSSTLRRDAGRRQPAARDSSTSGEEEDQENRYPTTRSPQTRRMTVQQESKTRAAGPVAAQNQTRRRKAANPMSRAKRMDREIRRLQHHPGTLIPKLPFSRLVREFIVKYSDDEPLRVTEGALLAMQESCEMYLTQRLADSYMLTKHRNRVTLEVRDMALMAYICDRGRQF
UniProt P92177: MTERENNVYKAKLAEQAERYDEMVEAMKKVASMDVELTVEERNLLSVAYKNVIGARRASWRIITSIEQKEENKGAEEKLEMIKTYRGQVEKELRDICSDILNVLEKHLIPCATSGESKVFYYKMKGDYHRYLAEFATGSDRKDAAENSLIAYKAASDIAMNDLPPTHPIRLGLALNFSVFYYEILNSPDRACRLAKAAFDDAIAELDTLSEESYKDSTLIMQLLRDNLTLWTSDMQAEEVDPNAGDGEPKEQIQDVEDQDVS
UniProt Q8IRG6: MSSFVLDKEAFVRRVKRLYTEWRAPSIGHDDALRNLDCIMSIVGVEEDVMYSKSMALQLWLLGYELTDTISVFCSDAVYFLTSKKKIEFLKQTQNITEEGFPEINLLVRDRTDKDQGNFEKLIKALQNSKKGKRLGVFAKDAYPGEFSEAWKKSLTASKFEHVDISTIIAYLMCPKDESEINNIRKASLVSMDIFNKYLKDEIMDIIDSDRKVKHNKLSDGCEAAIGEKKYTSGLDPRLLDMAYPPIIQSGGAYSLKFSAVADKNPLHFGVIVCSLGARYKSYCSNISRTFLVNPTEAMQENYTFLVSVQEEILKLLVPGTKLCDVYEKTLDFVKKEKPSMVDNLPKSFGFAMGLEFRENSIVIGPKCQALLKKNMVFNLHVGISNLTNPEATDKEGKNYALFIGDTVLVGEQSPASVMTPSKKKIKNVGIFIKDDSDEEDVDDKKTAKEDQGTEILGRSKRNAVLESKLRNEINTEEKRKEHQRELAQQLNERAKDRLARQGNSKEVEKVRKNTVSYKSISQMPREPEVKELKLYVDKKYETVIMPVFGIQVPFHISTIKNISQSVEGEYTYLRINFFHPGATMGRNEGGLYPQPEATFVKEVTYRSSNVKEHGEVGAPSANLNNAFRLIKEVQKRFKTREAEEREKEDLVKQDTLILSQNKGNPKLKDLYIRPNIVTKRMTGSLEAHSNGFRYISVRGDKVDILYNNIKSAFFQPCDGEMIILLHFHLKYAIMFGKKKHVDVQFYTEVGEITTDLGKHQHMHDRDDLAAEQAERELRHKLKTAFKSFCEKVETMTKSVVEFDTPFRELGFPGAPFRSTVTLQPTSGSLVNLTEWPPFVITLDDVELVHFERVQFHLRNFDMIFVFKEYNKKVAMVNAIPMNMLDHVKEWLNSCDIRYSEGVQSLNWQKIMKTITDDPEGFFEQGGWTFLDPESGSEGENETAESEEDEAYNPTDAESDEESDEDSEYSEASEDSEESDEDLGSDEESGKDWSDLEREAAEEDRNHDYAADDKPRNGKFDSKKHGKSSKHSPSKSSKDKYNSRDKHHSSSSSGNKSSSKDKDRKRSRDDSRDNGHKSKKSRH

Legend:
[1] = target: T1, CENP-C::protein A (Drosophila melanogaster) (UniProt Q9VHP9); assay: affinity purification with mass spectrometry; protein A-tagged bait from ~10^9 D.Mel-2 cells, lysate in extraction buffer (50 mM HEPES pH 7.5, 0.5% NP-40), DNase I, rabbit IgG Dynabeads 2 h 4 °C, LC-MS/MS, Mascot
T1 sequence: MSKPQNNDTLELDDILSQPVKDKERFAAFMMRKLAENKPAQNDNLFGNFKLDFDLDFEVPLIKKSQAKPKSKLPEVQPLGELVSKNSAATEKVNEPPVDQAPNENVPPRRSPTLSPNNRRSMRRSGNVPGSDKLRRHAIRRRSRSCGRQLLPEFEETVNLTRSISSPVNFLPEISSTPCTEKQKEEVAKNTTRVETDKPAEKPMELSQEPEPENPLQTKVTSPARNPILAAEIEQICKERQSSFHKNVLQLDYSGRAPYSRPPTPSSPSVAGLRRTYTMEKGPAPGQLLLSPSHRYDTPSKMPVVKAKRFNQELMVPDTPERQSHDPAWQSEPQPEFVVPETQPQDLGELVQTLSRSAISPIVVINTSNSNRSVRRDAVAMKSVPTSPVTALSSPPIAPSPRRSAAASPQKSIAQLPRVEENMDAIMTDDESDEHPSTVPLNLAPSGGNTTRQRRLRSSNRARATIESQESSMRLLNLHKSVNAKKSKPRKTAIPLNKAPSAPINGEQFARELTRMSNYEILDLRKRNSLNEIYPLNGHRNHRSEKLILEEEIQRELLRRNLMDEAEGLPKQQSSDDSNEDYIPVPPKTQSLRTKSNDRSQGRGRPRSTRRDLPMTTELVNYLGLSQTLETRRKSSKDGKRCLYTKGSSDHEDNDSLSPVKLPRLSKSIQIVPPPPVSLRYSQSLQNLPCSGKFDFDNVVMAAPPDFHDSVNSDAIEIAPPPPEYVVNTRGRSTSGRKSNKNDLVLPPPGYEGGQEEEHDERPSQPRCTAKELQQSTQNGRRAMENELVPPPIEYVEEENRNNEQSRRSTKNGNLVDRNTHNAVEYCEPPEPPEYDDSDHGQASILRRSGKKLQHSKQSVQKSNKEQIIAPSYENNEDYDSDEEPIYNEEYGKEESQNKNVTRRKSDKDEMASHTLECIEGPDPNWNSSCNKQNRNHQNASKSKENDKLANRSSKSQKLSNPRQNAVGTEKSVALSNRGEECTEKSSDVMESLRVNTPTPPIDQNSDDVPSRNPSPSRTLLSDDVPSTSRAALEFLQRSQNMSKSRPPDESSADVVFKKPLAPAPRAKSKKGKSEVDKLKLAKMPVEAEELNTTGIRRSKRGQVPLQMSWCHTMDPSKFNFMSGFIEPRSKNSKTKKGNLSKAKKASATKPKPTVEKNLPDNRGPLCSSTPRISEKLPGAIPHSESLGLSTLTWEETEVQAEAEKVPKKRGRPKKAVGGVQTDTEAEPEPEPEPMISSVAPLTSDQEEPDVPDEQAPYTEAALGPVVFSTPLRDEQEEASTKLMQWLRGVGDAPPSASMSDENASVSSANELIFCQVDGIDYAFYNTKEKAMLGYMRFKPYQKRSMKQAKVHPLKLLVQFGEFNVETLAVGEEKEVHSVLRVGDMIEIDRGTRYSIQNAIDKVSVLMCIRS

[2] = target: T1, CENP-C::protein A (Drosophila melanogaster); assay: as above; remark: listed apart in the source
[3] = target: protein A-tagged Flfl expressed in Drosophila syncytial embryos (Drosophila melanogaster) (UniProt Q9VFS5); assay: affinity purification with mass spectrometry; protein A-tagged bait from 1 g transgenic Drosophila syncytial embryos, extraction buffer, DNase I, rabbit IgG Dynabeads, LC-MS/MS
[4] = target: T2, FLAG::CENP-C^ΔFIM (Drosophila melanogaster) (UniProt Q9VHP9); assay: affinity purification with mass spectrometry; FLAG::CENP-C^WT or FLAG::CENP-C^ΔFIM purified from ~10^9 stably transfected D.Mel-2 cells on anti-FLAG M2 magnetic beads; mass spectrometry
T2 sequence: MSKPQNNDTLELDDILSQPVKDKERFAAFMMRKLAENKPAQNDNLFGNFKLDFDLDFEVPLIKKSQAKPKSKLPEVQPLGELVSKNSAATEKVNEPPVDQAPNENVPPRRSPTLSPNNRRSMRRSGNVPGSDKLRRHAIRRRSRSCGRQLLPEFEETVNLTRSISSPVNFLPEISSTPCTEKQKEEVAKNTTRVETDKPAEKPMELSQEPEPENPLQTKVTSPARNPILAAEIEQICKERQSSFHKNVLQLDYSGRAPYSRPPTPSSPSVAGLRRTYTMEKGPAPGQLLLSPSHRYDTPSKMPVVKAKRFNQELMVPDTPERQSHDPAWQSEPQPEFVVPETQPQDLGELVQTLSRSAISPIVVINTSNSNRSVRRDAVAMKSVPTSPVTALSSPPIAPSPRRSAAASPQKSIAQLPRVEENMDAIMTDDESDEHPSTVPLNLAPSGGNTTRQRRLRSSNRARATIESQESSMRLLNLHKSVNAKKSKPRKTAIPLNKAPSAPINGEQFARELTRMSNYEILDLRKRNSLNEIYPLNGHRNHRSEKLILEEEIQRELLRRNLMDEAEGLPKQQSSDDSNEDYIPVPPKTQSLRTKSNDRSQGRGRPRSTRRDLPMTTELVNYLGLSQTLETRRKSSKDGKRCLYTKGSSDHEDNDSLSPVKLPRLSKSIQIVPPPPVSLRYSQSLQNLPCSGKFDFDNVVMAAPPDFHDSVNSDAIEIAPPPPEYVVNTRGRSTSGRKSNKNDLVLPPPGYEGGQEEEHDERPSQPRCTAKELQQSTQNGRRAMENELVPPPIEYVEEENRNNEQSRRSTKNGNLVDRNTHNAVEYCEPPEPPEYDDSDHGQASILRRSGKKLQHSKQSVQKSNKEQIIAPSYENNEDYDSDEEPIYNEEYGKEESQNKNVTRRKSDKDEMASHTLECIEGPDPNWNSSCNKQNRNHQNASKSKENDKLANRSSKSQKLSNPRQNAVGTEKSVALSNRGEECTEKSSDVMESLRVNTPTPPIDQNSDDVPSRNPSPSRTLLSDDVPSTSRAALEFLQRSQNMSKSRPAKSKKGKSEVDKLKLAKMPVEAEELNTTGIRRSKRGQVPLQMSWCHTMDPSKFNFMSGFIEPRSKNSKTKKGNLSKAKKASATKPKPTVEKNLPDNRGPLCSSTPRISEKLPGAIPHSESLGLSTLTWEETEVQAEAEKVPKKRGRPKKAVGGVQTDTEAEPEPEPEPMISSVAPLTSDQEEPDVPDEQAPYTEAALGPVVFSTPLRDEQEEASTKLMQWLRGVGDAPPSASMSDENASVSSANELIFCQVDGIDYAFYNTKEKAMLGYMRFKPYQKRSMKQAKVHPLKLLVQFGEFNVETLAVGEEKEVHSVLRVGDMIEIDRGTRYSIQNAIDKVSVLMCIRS

[5] = target: Protein A::Falafel (Drosophila melanogaster) (UniProt Q9VFS5); assay: affinity purification with mass spectrometry; protein A-tagged bait from ~10^9 D.Mel-2 cells, lysate in extraction buffer (50 mM HEPES pH 7.5, 0.5% NP-40), DNase I, rabbit IgG Dynabeads 2 h 4 °C, LC-MS/MS, Mascot

In the case of “CENP-A/CID (from UniProt Q9V6Q2 1-225) (other; other documents disagree on this pair)”, the binding [1] is reported as “binds”.

For “14-3-3epsilon (from UniProt P92177 1-262)”, the binding [1] was “binds”.

“Dre4 (FACT complex) (from UniProt Q8IRG6 1-1083)” was tested, and the binding [1] was “binds”.

B1: SSRP1 (FACT complex) (protein, UniProt Q05344 1-723)
chain: MTDSLEYNDINAEVRGVLCSGRLKMTEQNIIFKNTKTGKVEQISAEDIDLINSQKFVGTWGLRVFTKGGVLHRFTGFRDSEHEKLGKFIKAAYSQEMVEKEMCVKGWNWGTARFMGSVLSFDKESKTIFEVPLSHVSQCVTGKNEVTLEFHQNDDAPVGLLEMRFHIPAVESAEEDPVDKFHQNVMSKASVISASGESIAIFREIQILTPRGRYDIKIFSTFFQLHGKTFDYKIPMDSVLRLFMLPHKDSRQMFFVLSLDPPIKQGQTRYHYLVLLFAPDEETTIELPFSEAELRDKYEGKLEKEISGPVYEVMGKVMKVLIGRKITGPGNFIGHSGTAAVGCSFKAAAGYLYPLERGFIYIHKPPLHIRFEEISSVNFARSGGSTRSFDFEVTLKNGTVHIFSSIEKEEYAKLFDYITQKKLHVSNMGKDKSGYKDVDFGDSDNENEPDAYLARLKAEAREKEEDDDDGDSDEESTDEDFKPNENESDVAEEYDSNVESDSDDDSDASGGGGDSDGAKKKKEKKSEKKEKKEKKHKEKERTKKPSKKKKDSGKPKRATTAFMLWLNDTRESIKRENPGIKVTEIAKKGGEMWKELKDKSKWEDAAAKDKQRYHDEMRNYKPEAGGDSDNEKGGKSSKKRKTEPSPSKKANTSGSGFKSKEYISDDDSTSSDDEKDNEPAKKKSKPPSDGDAKKKKAKSESEPEESEEDSNASDEDEEDEASD
With B1 the binding [2] was “binds”.

B2: Topoisomerase2 (enzyme, UniProt P15348 1-1447)
chain: MENGNKALSIEQMYQKKSQLEHILLRPDSYIGSVEFTKELMWVYDNSQNRMVQKEISFVPGLYKIFDEILVNAADNKQRDKSMNTIKIDIDPERNMVSVWNNGQGIPVTMHKEQKMYVPTMIFGHLLTSSNYNDDEKKVTGGRNGYGAKLCNIFSTSFTVETATREYKKSFKQTWGNNMGKASDVQIKDFNGTDYTRITFSPDLAKFKMDRLDEDIVALMSRRAYDVAASSKGVSVFLNGNKLGVRNFKDYIDLHIKNTDDDSGPPIKIVHEVANERWEVACCPSDRGFQQVSFVNSIATYKGGRHVDHVVDNLIKQLLEVLKKKNKGGINIKPFQVRNHLWVFVNCLIENPTFDSQTKENMTLQQKGFGSKCTLSEKFINNMSKSGIVESVLAWAKFKAQNDIAKTGGRKSSKIKGIPKLEDANEAGGKNSIKCTLILTEGDSAKSLAVSGLGVIGRDLYGVFPLRGKLLNVREANFKQLSENAEINNLCKIIGLQYKKKYLTEDDLKTLRYGKVMIMTDQDQDGSHIKGLLINFIHTNWPELLRLPFLEEFITPIVKATKKNEELSFYSLPEFEEWKNDTANHHTYNIKYYKGLGTSTSKEAKEYFQDMDRHRILFKYDGSVDDESIVMAFSKKHIESRKVWLTNHMDEVKRRKELGLPERYLYTKGTKSITYADFINLELVLFSNADNERSIPSLVDGLKPGQRKVMFTCFKRNDKREVKVAQLSGSVAEMSAYHHGEVSLQMTIVNLAQNFVGANNINLLEPRGQFGTRLSGGKDCASARYIFTIMSPLTRLIYHPLDDPLLDYQVDDGQKIEPLWYLPIIPMVLVNGAEGIGTGWSTKISNYNPREIMKNLRKMINGQEPSVMHPWYKNFLGRMEYVSDGRYIQTGNIQILSGNRLEISELPVGVWTQNYKENVLEPLSNGTEKVKGIISEYREYHTDTTVRFVISFAPGEFERIHAEEGGFYRVFKLTTTLSTNQMHAFDQNNCLRRFPTAIDILKEYYKLRREYYARRRDFLVGQLTAQADRLSDQARFILEKCEKKLVVENKQRKAMCDELLKRGYRPDPVKEWQRRIKMEDAEQADEEDEEEEEAAPSVSSKAKKEKEVDPEKAFKKLTDVKKFDYLLGMSMWMLTEEKKNELLKQRDTKLSELESLRKKTPEMLWLDDLDALESKLNEVEEKERAEEQGINLKTAKALKGQKSASAKGRKVKSMGGGAGAGDVFPDPDGEPVEFKITEEIIKKMAAAAKVAQAAKEPKKPKEPKEPKVKKEPKGKQIKAEPDASGDEVDEFDAMVEGGSKTSPKAKKAVVKKEPGEKKPRQKKENGGGLKQSKIDFSKAKAKKSDDDVEEVTPRAERPGRRQASKKIDYSSLFSDEEEDGGNVGSDDDGNASDDDSPKRPAKRGREDESSGGAKKKAPPKKRRAVIESDDDDIEIDEDDDDDSDFNC
In the case of B2, the binding [2] is reported as “binds”.

B3: PP4c, endogenous (enzyme, UniProt O76932 1-307)
chain: MSDYSDLDRQIEQLKRCEIIKENEVKALCAKAREILVEEGNVQRVDSPVTVCGDIHGQFYDLKELFKVGGDVPEKNYLFMGDFVDRGYYSVETFLLLLALKVRYPDRITLIRGNHESRQITQVYGFYDECLRKYGSTAVWRYCTEIFDYLSLSAIIDGKIFCVHGGLSPSIQYLDQIRSIDRKQEVPHDGPMCDLLWSDPEDQTGWGVSPRGAGYLFGSDVVSQFNRTNDIDMICRAHQLVMEGFKWHFNETVLTVWSAPNYCYRCGNVAAILELNEYLHRDFVIFEAAPQESRGIPSKKPQADYFL
With B3 the binding [3] was “binds”, the binding [4] was “no binding” and the binding [5] was “binds”.

B4: 14-3-3zeta (protein, UniProt P29310 1-248)
chain: MSTVDKEELVQKAKLAEQSERYDDMAQAMKSVTETGVELSNEERNLLSVAYKNVVGARRSSWRVISSIEQKTEASARKQQLAREYRERVEKELREICYEVLGLLDKYLIPKASNPESKVFYLKMKGDYYRYLAEVATGDARNTVVDDSQTAYQDAFDISKGKMQPTHPIRLGLALNFSVFYYEILNSPDKACQLAKQAFDDAIAELDTLNEDSYKDSTLIMQLLRDNLTLWTSDTQGDEAEPQEGGDN
For B4, the binding [2] was “binds”.
